Laboratory results reported in PMC7615141.
These are yes or no findings as the source states them, for the method shown. Binding calls can cover weak binding; strength is not graded here. For part of these data: Binding seen in cells or lysates may run through a third protein.

By UniProt entry, the sequences of proteins in these tests, tags left out. Where a name states a change or a piece, a line headed by the entry shows the natural chain unless it says otherwise. Residues count along the entry.
UniProt P01033, residues 24-207: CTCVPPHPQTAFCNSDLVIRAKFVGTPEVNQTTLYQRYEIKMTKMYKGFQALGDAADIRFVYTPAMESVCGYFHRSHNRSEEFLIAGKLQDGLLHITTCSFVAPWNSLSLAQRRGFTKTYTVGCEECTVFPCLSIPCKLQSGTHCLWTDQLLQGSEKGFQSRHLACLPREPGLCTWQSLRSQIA
UniProt Q9UKP4: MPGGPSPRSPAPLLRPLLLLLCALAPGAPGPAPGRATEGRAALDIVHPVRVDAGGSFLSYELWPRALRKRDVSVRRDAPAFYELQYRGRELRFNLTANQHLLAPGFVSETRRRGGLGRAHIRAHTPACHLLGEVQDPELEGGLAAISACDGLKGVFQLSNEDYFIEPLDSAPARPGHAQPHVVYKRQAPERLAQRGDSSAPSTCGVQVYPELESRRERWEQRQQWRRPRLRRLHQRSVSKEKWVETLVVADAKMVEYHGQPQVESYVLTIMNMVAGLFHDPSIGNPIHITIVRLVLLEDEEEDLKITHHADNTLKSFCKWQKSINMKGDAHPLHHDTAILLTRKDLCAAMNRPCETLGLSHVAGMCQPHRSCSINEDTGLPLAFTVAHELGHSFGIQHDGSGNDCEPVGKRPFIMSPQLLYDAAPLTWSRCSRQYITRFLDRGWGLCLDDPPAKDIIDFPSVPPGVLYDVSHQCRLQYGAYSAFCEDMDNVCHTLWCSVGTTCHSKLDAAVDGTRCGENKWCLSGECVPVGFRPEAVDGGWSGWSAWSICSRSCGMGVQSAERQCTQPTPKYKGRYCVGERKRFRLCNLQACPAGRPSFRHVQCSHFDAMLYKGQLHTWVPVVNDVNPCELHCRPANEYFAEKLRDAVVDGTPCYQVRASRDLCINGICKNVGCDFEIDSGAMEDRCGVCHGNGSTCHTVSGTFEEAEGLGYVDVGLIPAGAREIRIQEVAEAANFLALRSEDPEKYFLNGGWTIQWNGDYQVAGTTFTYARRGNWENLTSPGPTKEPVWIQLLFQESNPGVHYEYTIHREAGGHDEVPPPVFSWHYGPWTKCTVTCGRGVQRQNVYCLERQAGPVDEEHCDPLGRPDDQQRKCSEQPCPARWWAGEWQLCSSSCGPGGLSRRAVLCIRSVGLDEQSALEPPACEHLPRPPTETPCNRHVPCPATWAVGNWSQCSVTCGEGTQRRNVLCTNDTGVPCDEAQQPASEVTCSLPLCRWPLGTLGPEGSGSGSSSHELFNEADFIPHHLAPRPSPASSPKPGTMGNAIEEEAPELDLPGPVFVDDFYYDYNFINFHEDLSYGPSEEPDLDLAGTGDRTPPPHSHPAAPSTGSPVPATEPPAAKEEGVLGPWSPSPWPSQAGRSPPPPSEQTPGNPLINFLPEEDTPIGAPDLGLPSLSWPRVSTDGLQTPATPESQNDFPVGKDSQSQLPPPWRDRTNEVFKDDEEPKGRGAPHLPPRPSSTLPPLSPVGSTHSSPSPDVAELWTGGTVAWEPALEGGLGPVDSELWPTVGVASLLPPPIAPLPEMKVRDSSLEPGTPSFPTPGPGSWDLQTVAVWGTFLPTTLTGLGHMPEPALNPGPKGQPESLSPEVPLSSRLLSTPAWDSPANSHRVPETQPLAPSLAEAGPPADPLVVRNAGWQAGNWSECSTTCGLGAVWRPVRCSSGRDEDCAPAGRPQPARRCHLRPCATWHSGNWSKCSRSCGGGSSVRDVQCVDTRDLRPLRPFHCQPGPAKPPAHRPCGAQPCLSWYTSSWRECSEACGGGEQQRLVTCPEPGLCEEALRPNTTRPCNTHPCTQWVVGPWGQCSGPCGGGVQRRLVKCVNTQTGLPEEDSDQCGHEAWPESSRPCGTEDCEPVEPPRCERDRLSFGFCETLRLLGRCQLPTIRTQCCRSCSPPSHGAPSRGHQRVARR

Key:
[1] = target: TIMP-1-HA (tissue inhibitor of metalloproteinases 1 with HA tag) (human) (UniProt P01033); assay: AlphaScreen or HTRF; the pair ADAMTS-7-FLAG and TIMP-1-HA in the competition experiment (lysates; 0 ng untagged TIMP-1 as reference); 665/620 nm ratio; seven independent experiments
[2] = target: TIMP-1-HA (tissue inhibitor of metalloproteinases 1 with HA tag) (human) (UniProt P01033); assay: co-IP; TIMP-1-HA precipitated from the supernatant of HEK293 cells (Suppl. Fig. S4)
[3] = target: TIMP-1-HA (tissue inhibitor of metalloproteinases 1 with HA tag) (human) (UniProt P01033); assay: co-IP; ADAMTS7-V5 constructs and TIMP-1-HA co-expressed in HEK293 cells; protein lysates; TIMP-1-HA precipitated by an anti-HA antibody, ADAMTS-7 constructs detected by Western blot

binding [1] | binding [2] | binding [3] | Substance
binds | – | – | ADAMTS-7-FLAG (from UniProt Q9UKP4) (enzyme)
– | binds | binds | full-length ADAMTS-7 with a C-terminal V5-tag (ADAMTS7-V5) (from UniProt Q9UKP4) (enzyme)
